Reference: the supplement of paper PMC12819154, “High-throughput peptide-centric local stability assay extends protein–ligand identification to membrane proteins, tissues and bacteria” (Nature Structural & Molecular Biology, 2025)
This is one part of the list. Most entries show no effect beyond the scatter of the controls.

The chains behind the UniProt entries cited, without tags or fusion partners. Where a name states a change or a piece, a line headed by the entry shows the natural chain unless it says otherwise.
UniProt Q9H9Q2: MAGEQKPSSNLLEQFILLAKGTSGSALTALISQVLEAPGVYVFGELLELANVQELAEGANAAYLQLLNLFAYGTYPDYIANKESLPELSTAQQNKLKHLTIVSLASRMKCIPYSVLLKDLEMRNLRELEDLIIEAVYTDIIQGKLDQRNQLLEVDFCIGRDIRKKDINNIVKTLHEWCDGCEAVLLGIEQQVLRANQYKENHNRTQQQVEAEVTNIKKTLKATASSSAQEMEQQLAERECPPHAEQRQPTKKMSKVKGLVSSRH
UniProt Q9NPA8: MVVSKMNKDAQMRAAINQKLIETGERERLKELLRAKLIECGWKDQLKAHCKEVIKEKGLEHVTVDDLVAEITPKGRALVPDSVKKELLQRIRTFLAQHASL
UniProt Q9NQ88: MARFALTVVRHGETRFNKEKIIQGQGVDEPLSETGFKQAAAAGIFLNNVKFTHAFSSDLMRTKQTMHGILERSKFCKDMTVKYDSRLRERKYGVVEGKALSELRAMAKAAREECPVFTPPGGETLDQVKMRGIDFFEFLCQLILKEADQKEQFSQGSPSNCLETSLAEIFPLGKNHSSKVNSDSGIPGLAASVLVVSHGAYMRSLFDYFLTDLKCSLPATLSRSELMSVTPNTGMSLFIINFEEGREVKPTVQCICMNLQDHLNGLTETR
UniProt Q9H992: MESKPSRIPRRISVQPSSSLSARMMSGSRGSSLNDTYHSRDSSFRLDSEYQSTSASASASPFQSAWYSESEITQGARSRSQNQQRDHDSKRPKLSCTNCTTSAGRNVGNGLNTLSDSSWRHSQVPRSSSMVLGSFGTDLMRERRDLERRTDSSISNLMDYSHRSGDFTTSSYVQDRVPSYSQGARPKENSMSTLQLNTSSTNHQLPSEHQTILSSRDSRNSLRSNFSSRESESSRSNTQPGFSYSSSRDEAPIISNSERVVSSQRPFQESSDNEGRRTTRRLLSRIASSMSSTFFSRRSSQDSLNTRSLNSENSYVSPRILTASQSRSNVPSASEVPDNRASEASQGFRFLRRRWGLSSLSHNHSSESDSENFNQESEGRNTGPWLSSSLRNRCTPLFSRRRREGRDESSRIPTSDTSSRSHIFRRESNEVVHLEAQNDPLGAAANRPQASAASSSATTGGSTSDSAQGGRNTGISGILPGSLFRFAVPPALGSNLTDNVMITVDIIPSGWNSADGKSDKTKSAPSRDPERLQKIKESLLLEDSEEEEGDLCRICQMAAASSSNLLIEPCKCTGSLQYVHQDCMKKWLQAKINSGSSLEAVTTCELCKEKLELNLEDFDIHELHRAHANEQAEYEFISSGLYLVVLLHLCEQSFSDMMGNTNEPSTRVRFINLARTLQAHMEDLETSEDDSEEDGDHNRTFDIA
UniProt Q9H869: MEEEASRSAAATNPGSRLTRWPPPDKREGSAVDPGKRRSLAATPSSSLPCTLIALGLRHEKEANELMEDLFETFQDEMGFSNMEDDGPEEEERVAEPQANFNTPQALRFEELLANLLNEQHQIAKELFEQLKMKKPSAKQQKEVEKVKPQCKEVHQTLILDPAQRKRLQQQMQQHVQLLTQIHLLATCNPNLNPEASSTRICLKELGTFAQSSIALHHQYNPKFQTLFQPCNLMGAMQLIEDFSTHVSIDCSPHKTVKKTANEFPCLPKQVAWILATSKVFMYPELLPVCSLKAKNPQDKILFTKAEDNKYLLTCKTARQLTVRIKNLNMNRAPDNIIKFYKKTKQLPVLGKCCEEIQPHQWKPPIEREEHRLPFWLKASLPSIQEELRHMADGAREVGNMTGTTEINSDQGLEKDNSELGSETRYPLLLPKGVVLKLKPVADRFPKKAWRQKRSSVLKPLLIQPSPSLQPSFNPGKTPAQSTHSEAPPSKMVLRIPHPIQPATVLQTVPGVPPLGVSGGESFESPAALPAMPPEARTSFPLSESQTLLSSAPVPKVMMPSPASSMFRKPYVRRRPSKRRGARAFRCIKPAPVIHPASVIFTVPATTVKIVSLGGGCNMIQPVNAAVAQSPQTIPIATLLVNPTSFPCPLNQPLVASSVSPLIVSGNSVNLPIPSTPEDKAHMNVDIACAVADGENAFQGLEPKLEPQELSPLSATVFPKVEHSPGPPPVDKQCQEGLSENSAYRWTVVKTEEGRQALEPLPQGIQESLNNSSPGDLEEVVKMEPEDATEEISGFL
UniProt Q9H7D7: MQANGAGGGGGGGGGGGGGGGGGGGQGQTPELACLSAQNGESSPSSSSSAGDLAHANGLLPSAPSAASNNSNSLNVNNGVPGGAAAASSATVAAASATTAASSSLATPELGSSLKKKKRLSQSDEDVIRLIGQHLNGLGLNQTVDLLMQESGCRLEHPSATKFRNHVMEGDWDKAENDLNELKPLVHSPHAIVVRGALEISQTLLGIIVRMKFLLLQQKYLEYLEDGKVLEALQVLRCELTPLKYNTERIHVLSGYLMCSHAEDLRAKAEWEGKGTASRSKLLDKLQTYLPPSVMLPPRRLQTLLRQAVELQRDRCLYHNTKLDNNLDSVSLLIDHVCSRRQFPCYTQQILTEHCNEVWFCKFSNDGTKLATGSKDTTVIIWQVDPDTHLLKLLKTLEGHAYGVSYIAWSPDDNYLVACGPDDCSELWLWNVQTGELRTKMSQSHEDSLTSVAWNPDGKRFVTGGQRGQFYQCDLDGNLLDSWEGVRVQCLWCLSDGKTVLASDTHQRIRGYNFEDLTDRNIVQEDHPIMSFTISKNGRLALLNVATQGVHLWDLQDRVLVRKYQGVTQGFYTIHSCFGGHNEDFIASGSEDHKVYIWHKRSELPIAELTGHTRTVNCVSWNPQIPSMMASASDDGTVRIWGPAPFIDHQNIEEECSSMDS
UniProt Q9NPJ6: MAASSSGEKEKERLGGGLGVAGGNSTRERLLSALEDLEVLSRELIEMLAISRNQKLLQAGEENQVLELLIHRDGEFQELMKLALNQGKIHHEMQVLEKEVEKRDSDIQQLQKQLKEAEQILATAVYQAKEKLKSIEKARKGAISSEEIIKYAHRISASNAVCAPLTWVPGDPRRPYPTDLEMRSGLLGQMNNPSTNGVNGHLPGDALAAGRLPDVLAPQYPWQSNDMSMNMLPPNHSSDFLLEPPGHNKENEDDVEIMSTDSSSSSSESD
UniProt Q9HD20: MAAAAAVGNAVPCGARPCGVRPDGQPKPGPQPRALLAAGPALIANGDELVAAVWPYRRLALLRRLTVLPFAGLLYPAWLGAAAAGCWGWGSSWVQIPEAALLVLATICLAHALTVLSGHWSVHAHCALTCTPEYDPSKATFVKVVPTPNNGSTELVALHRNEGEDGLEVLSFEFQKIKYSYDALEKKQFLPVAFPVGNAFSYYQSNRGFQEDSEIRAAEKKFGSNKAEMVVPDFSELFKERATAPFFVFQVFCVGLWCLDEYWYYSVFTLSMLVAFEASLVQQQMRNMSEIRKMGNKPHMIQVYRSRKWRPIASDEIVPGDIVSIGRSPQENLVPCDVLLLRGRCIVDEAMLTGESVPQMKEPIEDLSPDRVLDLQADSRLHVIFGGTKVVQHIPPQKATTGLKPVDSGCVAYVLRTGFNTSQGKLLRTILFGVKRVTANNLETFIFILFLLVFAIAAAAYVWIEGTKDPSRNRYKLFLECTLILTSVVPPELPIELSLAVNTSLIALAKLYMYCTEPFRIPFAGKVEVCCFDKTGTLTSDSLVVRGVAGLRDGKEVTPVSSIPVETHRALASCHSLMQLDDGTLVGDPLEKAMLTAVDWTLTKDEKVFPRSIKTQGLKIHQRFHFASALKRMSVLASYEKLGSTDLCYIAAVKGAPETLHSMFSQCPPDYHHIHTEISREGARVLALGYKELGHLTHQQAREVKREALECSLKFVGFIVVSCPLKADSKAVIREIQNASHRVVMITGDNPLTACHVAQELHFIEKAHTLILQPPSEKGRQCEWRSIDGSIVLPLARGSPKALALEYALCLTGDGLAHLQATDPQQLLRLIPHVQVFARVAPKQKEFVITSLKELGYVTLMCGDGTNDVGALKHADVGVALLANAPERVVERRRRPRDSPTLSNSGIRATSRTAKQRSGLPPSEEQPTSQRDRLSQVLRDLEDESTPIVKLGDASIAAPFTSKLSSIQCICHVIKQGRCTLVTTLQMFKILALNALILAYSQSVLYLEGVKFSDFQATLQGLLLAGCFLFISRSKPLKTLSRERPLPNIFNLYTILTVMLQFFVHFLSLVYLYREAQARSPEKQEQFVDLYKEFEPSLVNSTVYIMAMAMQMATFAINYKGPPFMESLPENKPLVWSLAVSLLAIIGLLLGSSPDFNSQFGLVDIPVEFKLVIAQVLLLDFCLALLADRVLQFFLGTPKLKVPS
UniProt Q9H9Q4: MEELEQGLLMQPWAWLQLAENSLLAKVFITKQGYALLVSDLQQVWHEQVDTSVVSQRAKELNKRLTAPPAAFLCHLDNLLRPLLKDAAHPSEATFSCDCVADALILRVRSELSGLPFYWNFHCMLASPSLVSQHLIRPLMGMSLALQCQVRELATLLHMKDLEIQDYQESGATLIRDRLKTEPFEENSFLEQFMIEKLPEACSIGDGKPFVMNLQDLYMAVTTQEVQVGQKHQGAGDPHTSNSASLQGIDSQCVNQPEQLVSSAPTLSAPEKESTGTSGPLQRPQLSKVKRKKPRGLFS
UniProt Q9HAV0, whole entry: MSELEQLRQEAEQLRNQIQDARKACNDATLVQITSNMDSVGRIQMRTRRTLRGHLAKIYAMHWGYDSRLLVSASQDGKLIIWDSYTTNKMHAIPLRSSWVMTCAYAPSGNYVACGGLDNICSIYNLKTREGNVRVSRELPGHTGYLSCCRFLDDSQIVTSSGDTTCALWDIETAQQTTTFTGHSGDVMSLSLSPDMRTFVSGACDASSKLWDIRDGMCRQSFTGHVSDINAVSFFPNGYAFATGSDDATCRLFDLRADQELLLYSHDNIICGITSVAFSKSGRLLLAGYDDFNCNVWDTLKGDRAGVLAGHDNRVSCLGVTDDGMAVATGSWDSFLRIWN

These targets were tested with CN[C@@H]1C[C@H]2O[C@@](C)([C@@H]1OC)n1c3ccccc3c3c4c(c5c6ccccc6n2c5c31)C(=O)NC4 [staurosporine] (assay: log2 fold change of tryptic peptide abundance, ligand vs vehicle (limited proteolysis) (log2 ratio); higher = more trypsin-susceptible (destabilized)). Conditions: ligand concentration: 20 uM; sample: K562 cleared lysate; digestion: 4 min, 22 C (HT-PELSA RT4min, Orbitrap Astral).
For “COPS7B (peptide sequence: VKGLVSSRH, peptide start residue: 256) (UniProt Q9H9Q2)”, the log2 fold change was -0.21.
Target “UniProt Q9NPA8 (peptide sequence: ALVPDSVKK, peptide start residue: 77)” has a log2 fold change of 0.186.
For “UniProt Q9NQ88 (peptide sequence: CSLPATLSR, peptide start residue: 215)”, the log2 fold change was 0.214.
“MARCHF7 (peptide sequence: IASSMSSTFFSR, peptide start residue: 286) (UniProt Q9H992)” gave a log2 fold change of 0.822.
In the case of “YY1AP1 (peptide sequence: LKPVADRFPK, peptide start residue: 438) (UniProt Q9H869)”, the log2 fold change is reported as -0.301.
Target “WDR26 (peptide sequence: LEHPSATK, peptide start residue: 155) (UniProt Q9H7D7)” has a log2 fold change of 0.58.
“GORASP2 (peptide sequence: ANVEKPVK, peptide start residue: 61) (UniProt Q9H8Y8)” was tested, and the log2 fold change was 0.536.
“MED4 (peptide sequence: IHHEMQVLEK, peptide start residue: 89) (UniProt Q9NPJ6)” gave a log2 fold change of 0.872.
“ATP13A1 (peptide sequence: DSPTLSNSGIR, peptide start residue: 898) (UniProt Q9HD20)” was tested, and the log2 fold change was 0.172.
“NHEJ1 (peptide sequence: ESTGTSGPLQRPQLSK, peptide start residue: 273) (UniProt Q9H9Q4)” showed a log2 fold change of 0.051.
“GNB4 (peptide sequence: IYAMHWGYDSR, peptide start residue: 58) (UniProt Q9HAV0)” gave a log2 fold change of -0.512.
